In PubChem BioAssay AID2551 (National Center for Advancing Translational Sciences (NCATS), 2010):
Hit rate of the full screen: of about 310,000 compounds, about 17,000 (5.5%) were called active. Inconclusive results, whose numbers are uncertain, are shown with a selection of clear calls. Calls follow the shape of the dose curve; as a rule, active = well fitted inhibition curve with a large enough effect; inconclusive = small, poorly fitted or top-dose-only effect, or effect the other way; inactive = no such curve, though single readings can be large or run the other way. Potencies beside an inconclusive call are fits to weak or partial responses and may not hold up.

Amino acid sequences for entries named in this document (tags omitted). A change or cut given only in a name is not applied to a line headed by its entry.
UniProt P51450: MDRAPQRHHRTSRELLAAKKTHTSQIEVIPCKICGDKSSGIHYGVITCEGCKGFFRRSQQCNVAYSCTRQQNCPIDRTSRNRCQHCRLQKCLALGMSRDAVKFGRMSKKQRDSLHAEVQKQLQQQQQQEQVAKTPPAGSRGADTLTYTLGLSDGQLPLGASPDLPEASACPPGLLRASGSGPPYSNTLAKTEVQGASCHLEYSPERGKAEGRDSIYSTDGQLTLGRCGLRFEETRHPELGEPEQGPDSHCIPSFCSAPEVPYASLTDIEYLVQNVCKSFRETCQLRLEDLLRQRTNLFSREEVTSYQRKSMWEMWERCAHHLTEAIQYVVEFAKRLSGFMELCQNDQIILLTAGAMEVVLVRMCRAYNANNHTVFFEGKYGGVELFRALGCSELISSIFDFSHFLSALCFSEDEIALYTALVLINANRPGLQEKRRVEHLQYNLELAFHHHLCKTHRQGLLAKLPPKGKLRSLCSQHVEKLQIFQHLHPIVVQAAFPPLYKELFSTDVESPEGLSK

Molecular target: Nuclear receptor ROR-gamma (Mus musculus) (UniProt P51450)
Experiment: qHTS for inhibitors of ROR gamma transcriptional activity; also: nearly all actives have a fitted effect of over 60% in size
Conditions: Drosophila S2 Gal4-RORgamma UAS-luciferase reporter, 20 h; series mostly up to 53.6 µM
In short: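 Schneider cells (Drosophila), stable Gal4 DBD–ROR gamma + UAS-luc; 1 hr cmpd preincubation; Cu2+ induction 700 uM final; 20 hr ambient; luminescence.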
Potency is read from the fitted curve at half-maximal effect.

Row | Structure (SMILES) | Potency
1 | Clc1cccc(CN2CCCCCC2)c1Cl | inactive
2 | C=CCNCCCCOc1cccc(Br)c1 | inactive
3 | Cc1cc(C)cc(NS(=O)(=O)c2ccc(NC(=S)NC(=O)c3cccs3)cc2)c1 | active: 0.794 µM
4 | C=C(C)[C@H]1CC=C(C)/C(=N/NC(=O)CNc2ccccc2OC)C1 | inconclusive: 11.2 µM [activator, single point]
5 | CCN1CCN(Cc2ccc(OCc3ccccc3)cc2)CC1 | inconclusive: 12.6 µM [inhibitor, partial curve, poor fit]
6 | N#Cc1c(N2CCOCC2)nc(N)c2c(N)nc3c(c12)CC(CCl)O3 (stereo not given) | inactive
7 | O=C(NC(=S)NCc1ccco1)c1cccc(Cl)c1 | active: 6.31 µM
8 | CC(C)Sc1nc(N)nc(-c2cccs2)c1C#N | inconclusive: 2.82 µM [activator, partial curve]
9 | Cc1csc2c(N3CCN(C(=O)Nc4ccc(OC(F)(F)F)cc4)CC3)ncnc12 | inconclusive: 3.16 µM [inhibitor, single point]
10 | O=c1c(-c2nnc(SCc3ccc(Cl)c(Cl)c3)o2)cccn1Cc1ccccc1 | inconclusive: 11.2 µM [activator, partial curve, poor fit]
11 | CCC1Oc2ccc(C)cc2N(CC(=O)NCCCN2CCCCC2C)C1=O (stereo not given) | inconclusive: 0.447 µM [inhibitor, single point]
12 | Cc1cc(-c2cc(-c3ccccc3)on2)nc(NCC2CC2)n1 | inactive
13 | Cc1cc(NCc2ccccn2)n2nc(C)c(-c3ccccc3)c2n1 | active: 0.708 µM
14 | O=C(/C=C/c1ccoc1)c1ccccc1O | inconclusive: 35.5 µM [inhibitor, single point]
15 | CCS(=O)(=O)Nc1ccc(-c2nnc(SCC(=O)OC)o2)cc1 | inconclusive: 3.16 µM [inhibitor, partial curve, poor fit]
16 | Cc1cc(C(=O)CSc2n[nH]c(N)n2)c(C)n1-c1ccccc1 | inconclusive: 1 µM [activator, full curve, poor fit]
17 | OC[C@@H]1CCCN1Cc1cn(-c2ccccc2)nc1-c1ccc2c(c1)OCO2 | inconclusive: 0.316 µM [inhibitor, full curve, poor fit]
18 | N#Cc1nccnc1S(=O)(=O)c1cccs1 | active: 3.16 µM
19 | NC(=O)c1c(NC(=O)c2cccs2)sc2c1CCCCCC2 | inconclusive: 1.78 µM [activator, full curve]
20 | N#Cc1cccc(NC(=O)COC(=O)c2cccc(N3C(=O)c4ccccc4C3=O)c2)c1 | inconclusive: 31.6 µM [activator, single point]
21 | CCN(CC)C(=O)Oc1ccc2c(c1)O/C(=C\c1ccco1)C2=O | inconclusive: 15.8 µM [activator, partial curve, poor fit]
22 | C=CCNC(=S)N(Cc1ccccc1)Cc1ccc(F)cc1 | active: 17.8 µM
23 | COc1ccc(NC(=O)NC23CC4(C)CC(C)(CC(C)(C4)C2)C3)cc1OC | inactive
24 | CCCCCCCCn1cnc2c(N)c(C)c(C)cc21 | active: 10 µM
25 | CN1C(=O)c2ccccc2Sc2ccc(NC(=O)NC3CC3)cc21 | inactive

Row | Structure (SMILES) | Potency
26 | O=C(c1ccco1)N1CCN(CC(O)COc2ccc3oc4ccccc4c3c2)CC1 (stereo not given) | inconclusive: 22.4 µM [activator, single point]
27 | O=C(CSC(=S)N1CCCCC1)c1ccccc1 | inconclusive: 11.2 µM [inhibitor, single point]
28 | CC(C)Oc1ccc(CCC(=O)NNC(=S)NCc2ccccc2)cc1 | inconclusive: 3.16 µM [inhibitor, full curve, poor fit]
29 | O=C(N/N=C/C=C/c1ccccc1)c1cc2c(ccc3ccccc32)o1 | active: 7.08 µM
30 | COc1ccc(Cn2nnnc2C(c2ccc(F)cc2)N2CCN(C3CCCC3)CC2)cc1 (stereo not given) | inconclusive: 22.4 µM [inhibitor, single point]
31 | Nc1nnc(SCC(=O)Nc2ccc(N3CCOCC3)c(Cl)c2)s1 | inconclusive: 11.2 µM [activator, partial curve]
32 | O=C(NCC1(c2ccccc2)CCCC1)c1ccc(Br)cc1 | inactive
33 | O=c1[nH]c(C(F)(F)F)nc2ccc3ccccc3c12 | inactive
34 | CC(C)(C)NC(=S)NNC(=O)c1ccncc1 | active: 1.12 µM
35 | N=C(c1ccc([N+](=O)[O-])cc1)N1CCCCCC1 | inactive
36 | Cc1[nH]n(-c2ccccc2)c(=O)c1/C=C1/C=c2ccccc2=N1 | inactive
37 | NC(=O)c1ccccc1O | inconclusive: 2.51 µM [activator, partial curve]
38 | O=C(COc1ccc(Cl)cc1)NNC(=S)NCc1ccccc1 | active: 1.12 µM
39 | CCN(CC1COc2ccccc2O1)C(=S)NC1CC2CCC1C2 (stereo not given) | active: 8.91 µM
40 | CCc1ccc(OC)c(S(=O)(=O)Nc2ccc(Cc3ccncc3)cc2)c1 | inconclusive: 0.501 µM [activator, partial curve, poor fit]
41 | COC(=O)[C@@]1(Cc2ccc(F)cc2)[C@H]2c3cc(C(=O)N(C)C)n(Cc4ccc(Cl)c(C(F)(F)F)c4)c3C[C@H]2CN1C(=O)c1ccccc1 | inconclusive: 11.2 µM [activator, single point]
42 | O=C(CCc1ccccc1)NC1CCCc2ccccc21 (stereo not given) | inconclusive: 35.5 µM [inhibitor, single point]
43 | O=C(Cc1cn2ccsc2n1)Nc1nc2c(s1)CCCC2 | inconclusive: 0.708 µM [activator, partial curve, poor fit]
44 | O=C(Nc1ccc(C(F)(F)F)cc1)C1CCN(c2cnccn2)CC1 | inconclusive: 31.6 µM [activator, single point]
45 | O=C(Nc1cccc2ncccc12)c1ccc(-c2ccc(Br)cc2)o1 | inactive
46 | S=C(NCCc1ccccc1)Nc1ccccc1 | active: 3.16 µM
47 | COc1ccccc1N1CCN(CCc2n[nH]c(=S)n2-c2ccccc2)CC1 | inconclusive: 35.5 µM [inhibitor, single point]
48 | Cc1ccc(N/C(N)=N/c2nc(C)cc(N3CCCCC3)n2)c(C)c1 | inactive
49 | COc1ccc(-c2cc(C(=O)Nc3c(C)n(C)n(-c4ccccc4)c3=O)c3ccccc3n2)c(OC)c1 | inactive
50 | COc1cc(CN2CCCN(C)CC2)c([N+](=O)[O-])cc1OC | inconclusive: 35.5 µM [inhibitor, single point]

Row | Structure (SMILES) | Potency
51 | C=CCNc1nc(NCc2ccccc2)nc(OCC)n1 | inconclusive: 17.8 µM [inhibitor, partial curve, poor fit]
52 | Nc1nc(Nc2ccccc2F)nc(NCc2ccco2)c1[N+](=O)[O-] | inconclusive: 11.2 µM [activator, single point]
53 | O=C(Cc1ccc(Br)cc1)Nc1nc2ccccc2[nH]1 | inconclusive: 3.98 µM [inhibitor, partial curve, poor fit]
54 | CC(NC(=O)CCc1ccccc1)c1cc2c(cc1Cl)OCCO2 (stereo not given) | inactive
55 | C[C@@H]1C(=O)N(S(=O)(=O)c2ccc([N+](=O)[O-])cc2)[C@H]1c1ccc(F)cc1 | inactive
56 | OC(CN1CCCCCC1)CN(c1ccccc1)c1ccccc1 (stereo not given) | inconclusive: 15.8 µM [activator, single point]
57 | O=C(C1=C[C@@H](c2ccc(Br)cc2)C[C@@H](OCCCCO)O1)N1CCN(Cc2ccc3c(c2)OCO3)CC1 | inconclusive: 22.4 µM [inhibitor, single point]
58 | Cc1ccc(NC(=S)NCC(C)C)cc1 | active: 10 µM
59 | Cc1c(NC(=O)c2ccccc2NC(=O)COc2ccccc2)cccc1C(=O)O | active: 7.94 µM
60 | COc1ccc2[nH]c(C)c(CCNC(=S)Nc3ccccc3C)c2c1 | inconclusive: 5.01 µM [inhibitor, partial curve, poor fit]
61 | Cc1ccc(-n2c(C)c3c(C)nnc(C)c3c2C)cc1 | inconclusive: 0.316 µM [inhibitor, partial curve, poor fit]
62 | S=C(NCc1ccccc1)NCc1ccc2c(c1)OCO2 | inconclusive: 31.6 µM [inhibitor, single point]
63 | O=C(Nc1cccc(C(=O)N2CCCC2)c1)c1ccccc1Cl | inactive
64 | Cc1ccccc1N1CCN(C(=S)c2ccccc2)CC1 | inconclusive: 17.8 µM [inhibitor, single point]
65 | CCOC(=O)N1CCN(C(=O)c2cc3cc(Cl)ccc3[nH]2)CC1 | inactive
66 | COc1ccc(NC(=O)c2cccnc2Cl)c(S(=O)(=O)N2CCOCC2)c1 | inactive
67 | COc1cc(O)c2c(=O)cc(-c3ccc(OC)c(-c4c(O)cc(O)c5c(=O)cc(-c6ccc(O)cc6)oc45)c3)oc2c1 | inconclusive: 22.4 µM [inhibitor, single point]
68 | O=c1c(-c2ccc3c(c2)OCCO3)c(C(F)(F)F)oc2cc(O)cc(O)c12 | inconclusive: 15.8 µM [activator, single point]
69 | O=C(COc1ncnc2ccccc12)Nc1ccc(Cl)c(S(=O)(=O)N2CCOCC2)c1 | inactive
70 | S=c1[nH]c2cnccc2n1Cc1ccccc1 | inconclusive: 35.5 µM [inhibitor, single point]
71 | CCCCC(O)(CCCC)C(=O)NN(C(=O)CCl)c1ccccc1 | active: 12.6 µM
72 | CSc1ccc(CCNC(=O)c2ccc(CS(=O)Cc3ccccc3Cl)o2)cc1 (stereo not given) | inconclusive: 35.5 µM [activator, single point]
73 | N/C(=N\O)c1ccc([N+](=O)[O-])s1 | inactive
74 | CCN(CC)S(=O)(=O)c1ccc(NC(=S)NC(=O)CC(C)C)cc1 | inconclusive: 35.5 µM [inhibitor, single point]
75 | CCn1c(CCNC(=O)c2ccc(Cl)c(Cl)c2)nnc1SCCOc1ccc(OC)cc1 | inconclusive: 31.6 µM [activator, single point]
